Assay results from article PMC2724173.
Results are given in words; binding and its absence hold for the method and conditions named.

Chains of the proteins cited; added tags and fusions are not shown. Lines headed by an entry give the natural chain unless they say otherwise; changes in a name come on top.
UniProt Q04640: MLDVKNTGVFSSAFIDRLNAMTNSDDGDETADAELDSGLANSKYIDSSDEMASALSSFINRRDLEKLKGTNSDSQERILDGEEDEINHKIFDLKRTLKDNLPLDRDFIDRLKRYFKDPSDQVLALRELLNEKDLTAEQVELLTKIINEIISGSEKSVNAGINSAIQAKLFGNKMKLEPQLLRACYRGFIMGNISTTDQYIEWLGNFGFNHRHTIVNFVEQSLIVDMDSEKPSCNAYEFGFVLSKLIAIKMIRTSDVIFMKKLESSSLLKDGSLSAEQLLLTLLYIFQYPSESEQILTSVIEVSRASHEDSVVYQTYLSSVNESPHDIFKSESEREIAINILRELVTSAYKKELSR

What was measured:
[1] = target: MxiC N-terminal truncation (residues 74–355) (Shigella flexneri) (UniProt Q04640); experiment: SEC; HiLoad 16/60 Superdex 200 column pre-equilibrated in 20 mM Tris (pH 7.5), 150 mM NaCl; both purified
[2] = target: MxiC full-length construct (residues 1–355) (Shigella flexneri) (UniProt Q04640); experiment: as above

Row | Substance | binding [1] | binding [2]
1 | MxiC N-terminal truncation (residues 74–355) (from UniProt Q04640 74-355) (domain or fragment) | no binding | 
2 | MxiC full-length construct (residues 1–355) (from UniProt Q04640 1-355) |  | no binding
